Data as given in article PMC6389991.

T1: malate dehydrogenase (MDH), denatured (UniProt P00346)
T1 sequence: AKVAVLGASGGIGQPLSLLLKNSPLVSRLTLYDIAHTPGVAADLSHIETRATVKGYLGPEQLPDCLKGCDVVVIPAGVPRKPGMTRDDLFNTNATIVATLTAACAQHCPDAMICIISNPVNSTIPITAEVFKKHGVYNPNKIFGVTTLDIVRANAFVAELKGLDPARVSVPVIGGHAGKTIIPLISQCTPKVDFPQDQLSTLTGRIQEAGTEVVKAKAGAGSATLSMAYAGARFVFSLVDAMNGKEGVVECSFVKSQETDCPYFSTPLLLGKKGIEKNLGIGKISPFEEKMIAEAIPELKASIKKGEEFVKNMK


How the values were obtained:
[1] = biological target: T1, malate dehydrogenase (MDH), denatured; assay: cross-linking; glutaraldehyde; ~60 µg proteins in 50 mM sodium phosphate pH 8, 100 mM NaCl with or without ATP and MgCl2 (2 mM each), 37 °C; SDS-PAGE; MDH denatured at 48 °C; both purified
[2] = biological target: PFA0660w-S (219–386) (P. falciparum); assay: pull-down; 20 µg PFA0660w-S on Ni-NTA beads, saturated with 200 µg denatured MDH, then cholesterol 50-300 µM; bound fractions on SDS-PAGE; both purified

Molecule	binding [1]	binding [2]
PFA0660w-C (81–386) (P. falciparum) (domain or fragment)	binds	–
malate dehydrogenase (MDH), denatured (enzyme, UniProt P00346 25-338) AKVAVLGASGGIGQPLSLLLKNSPLVSRLTLYDIAHTPGVAADLSHIETRATVKGYLGPEQLPDCLKGCDVVVIPAGVPRKPGMTRDDLFNTNATIVATLTAACAQHCPDAMICIISNPVNSTIPITAEVFKKHGVYNPNKIFGVTTLDIVRANAFVAELKGLDPARVSVPVIGGHAGKTIIPLISQCTPKVDFPQDQLSTLTGRIQEAGTEVVKAKAGAGSATLSMAYAGARFVFSLVDAMNGKEGVVECSFVKSQETDCPYFSTPLLLGKKGIEKNLGIGKISPFEEKMIAEAIPELKASIKKGEEFVKNMK	–	binds

These are yes or no findings as the source states them, for the method shown. Binding can be weak; no strength is given.
